Literature values in US10543287B2, “Immune-compromised zebrafish” (The General Hospital Corporation, priority 2013, dated 2020).
At least one compound was matched to its structure with a doubt left.

System: human tumors
Details: immune suppression in adult fish, Klemke laboratory [53]

C[C@@H]1C[C@H]2[C@@H]3CCC4=CC(=O)C=C[C@]4(C)[C@@]3(F)[C@@H](O)C[C@]2(C)[C@@]1(O)C(=O)CO [dexamethasone]
time of engraftment of human tumors post-transplant: exceeding 30 days
